From patent US8569356B2, “Cyclin dependent kinase inhibitors” (University of Florida Research Foundation, Inc., priority 2005, dated 2013)
At least one compound was matched to its structure with a doubt left.

Tested on: BT549 breast cancer cells
Assay: 3H-thymidine incorporation assay, BT549
Assay type: cell-based, human
Description: FIG. 4. Compounds #1, #7, and #11 inhibit proliferation of BT549 breast cancer cells. BT549 cells were treated for 24 hours with the indicated “Pocket #1” compounds. The effect of treatment on cell proliferation was quantitated by measuring the amount of ^3H-Thymidine incorporated into cellular DNA over a two hour time interval. The results are presented as the average of triplicate determinations ±standard deviation.
FIG. 5. Compounds predicted to bind to “Pocket #2” inhibit proliferation of BT549 breast cancer cells. BT549 cells were treated for 24 hours with the indicated “Pocket #2” compounds. The effect of treatment on cell proliferation was quantitated by measuring the amount of ^3H-Thymidine incorporated into cellular DNA over a two hour time interval. The results are presented as the average of triplicate determinations ±standard deviation.
Additional ^3H-thymidine incorporation assays were performed to determine whether the “Pocket #2” binding drugs (see Table 2) inhibit cell proliferation at concentrations lower than 100 μM.

Cc1ccc(NC2=CC(=O)C(=O)c3ccccc32)cc1 [Compound 11]
potency compared with Compound 7 (BT549 cells): more potent than Compound 7 | effective concentration for inhibition of proliferation (BT549 cells, 24 hours): high nanomolar to low micromolar concentrations | inhibition of proliferation (3H-thymidine incorporation) (BT549 cells, 24 hours): inhibit the proliferation | preferential inhibition of cancer cells over nontransformed cells (data not shown): preferential inhibition of cancer cells over nontransformed cells
